Results deposited as PubChem BioAssay AID686943 (Drosophila RNAi Screening Center, 2013)

- Test: 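Knockdowns that increase or decrease active ERK after insulin receptor stimulation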 (primary screen)
- Cells: Drosophila S2R+ haemocyte-like cells expressing YFP-tagged ERK (Rolled)
- Knock-down reagent: long dsRNA against Drosophila genes
- Conditions: insulin stimulation versus unstimulated cells; dose and duration not given
- Measured: 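Antibody staining for doubly phosphorylated ERK divided by ERK-YFP signal, as plate z-scores, in insulin-treated and untreated cells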
- Reading the numbers: replicate 1, z-score of dpERK with insulin: higher = more active ERK per ERK-YFP after insulin
In all, the deposit lists about 23,000 reagents; shown is an unselected part of those that have a named target and a result. 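Extra replicates exist only for a retested subset of genes; insulin dose and duration not given; both raised and lowered dpERK matter.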 Further read-outs or replicates are left out here. Not given: the amount of reagent, the time to read-out.

replicate 1, z-score of dpERK with insulin, by gene knocked down and reagent
Zip88E (GeneID 41847): DRSC15562 0.08
COX3 (retired record) (GeneID 192471): DRSC21279 0.52
RYa-R (GeneID 43253): DRSC16757 0.14
CG11370 (GeneID 40486): DRSC11653 -0.52
CG3713 (GeneID 50365): DRSC18648 0.5
GluRIIB (GeneID 33789): DRSC03335 -0.49
Ythdc1 (GeneID 38420): DRSC08141 -1.01
CG30082 (GeneID 246443): DRSC22945 1.39
CG15473 (GeneID 31401): DRSC18056 1.43
CG15642 (GeneID 32476): DRSC19678 0.4
Ptpa (GeneID 33555): DRSC00776 -0.39
Obp58b (GeneID 37607): DRSC04161 -0.29
Pxn (GeneID 38326): DRSC08685 0.97
GstO1 (GeneID 38975): DRSC10688 1.06
ktub (GeneID 37400): DRSC04551 -0.4
CG33630 (GeneID 3772504): DRSC14546 -0.4
Hdc (GeneID 36076): DRSC07439 -0.14
Usp39 (GeneID 32881): DRSC20032 2.34
GNBP-like3 (GeneID 37313): DRSC06385 0.48
Spn43Aa (GeneID 45041): DRSC06117 -0.09
Culd (GeneID 38946): DRSC10262 -0.1
CG14969 (GeneID 38415): DRSC08428 0.44
Gcat (GeneID 39333): DRSC09719 -0.05
Taf1 (GeneID 40813): DRSC12607 0.28
CG8545 (GeneID 36365): DRSC07210 -0.65
CG1116 (GeneID 40622): DRSC12166 0.92
CtsK1 (GeneID 39547): DRSC08742 -0.34
Kap3 (GeneID 32071): DRSC19426 0.43
Saysd1 (GeneID 43029): DRSC14664 -0.12
CG15044 (GeneID 32834): DRSC19620 1.23; DRSC21385 0.2
CG12147 (GeneID 40651): DRSC12192 -0.84
CG2082 (GeneID 40713): DRSC12125 0.81
Tsp42A (GeneID 35515): DRSC04862 0.24
Nxt1 (GeneID 37769): DRSC04630 -0.15
CG9154 (GeneID 33858): DRSC03150 -0.03

9 entries from above, arranged by “replicate 1, z-score of dpERK with insulin”, low to high.
gene knocked down	amplicon	replicate 1, z-score of dpERK with insulin
CG8545 (GeneID 36365)	DRSC07210	-0.65
CtsK1 (GeneID 39547)	DRSC08742	-0.34
Culd (GeneID 38946)	DRSC10262	-0.1
Spn43Aa (GeneID 45041)	DRSC06117	-0.09
Gcat (GeneID 39333)	DRSC09719	-0.05
Taf1 (GeneID 40813)	DRSC12607	0.28
Kap3 (GeneID 32071)	DRSC19426	0.43
CG14969 (GeneID 38415)	DRSC08428	0.44
CG1116 (GeneID 40622)	DRSC12166	0.92

Continued.
replicate 1, z-score of dpERK with insulin, by gene knocked down and reagent
CG32109 (GeneID 39444): DRSC09816 -0.1
CG7011 (GeneID 39657): DRSC09347 -0.46
Dus2 (GeneID 32377): DRSC19591 0.64
Torsin (GeneID 31399): DRSC18570 -0.46
Unc50 (GeneID 41029): DRSC16561 0.78
TyrRS (GeneID 39829): DRSC10430 1.39
Tmtc1 (GeneID 33455): DRSC00147 0.34; DRSC00151 -0.05; DRSC00314 1.24; DRSC00411 -0.7
Acp53Ea (GeneID 36874): DRSC05916 -0.38
HDAC11 (GeneID 326120): DRSC14280 -0.01
CG33640 (GeneID 3772680): DRSC01324 -0.3
tun (GeneID 36743): DRSC05592 1.95; DRSC07127 0.86
AP-2sigma (GeneID 42525): DRSC15957 0.23
CG4213 (GeneID 33209): DRSC00641 0.6
RpL6 (GeneID 43723): DRSC14323 -2.36; DRSC22384 -0.69
ttm50 (GeneID 31266): DRSC18587 -0.87
CG4151 (GeneID 31465): DRSC18351 -0.27
